Literature values in patent US20070043122A1, “Use of 2,2,3,3, tetramethylcyclopropane carboxylic acid derivatives for treating psychiatric disorders” (YISSUM RESEARCH DEVELOPMENT CO. OF THE HEBREW UNIVERSITY OF …, priority 2003, published 2007).
At least one structure is not confirmed: it was looked up by name or label, or the drawing left a doubt.

Test system: growth cones of newborn rat dorsal root ganglia (DRG) cells
Conditions: reversed by addition of myo-inositol; cited from earlier work

Compound: [Li] [lithium]
- effect on spreading of growth cones of newborn rat DRG cells: increased spreading
